PubChem BioAssay AID493014 (National Center for Advancing Translational Sciences (NCATS), 2011)
Among all 340,000 compounds or so, about 170 (0.05%) were called active. The shares of active, inactive and inconclusive entries below differ from those in the screen. Calls come from the whole dose curve; as a rule, active = well fitted inhibition curve with a large enough effect in the signal ratio, with a control signal flat (not every such curve was filed as active); inconclusive = small, poorly fitted or top-dose-only effect, or effect the other way, or a change in a side signal; inactive = flat fitted curve, though single readings scatter; the % refers to the signal ratio. A potency beside an inconclusive call is a rough fit, not a confirmed value.
Potency is the fitted concentration of half-maximal effect.

Assay: qHTS Assay to Find Inhibitors of Chronic Active B-Cell Receptor Signaling;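 for activity change, negative = inhibition: plate controls were basal doxycycline-induced cells for no effect and cells given 10 µM MG132 for full effect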
Settings: ABC-DLBCL IkBa-CBG/CBR reporter, luminescence ratio (green luciferase fused to IkBa over red control in TMD8 lymphoma cells), 4 h; activity change, negative = inhibition: at 46.1 µM (top of the series)
Summary of the method: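 Cell line TMD8 (human ABC DLBCL), stably expressing tet-inducible CBG68-IkBa fusion and CBR; IMDM/0.5% FBS; cpd up to 46 uM; dox induction, 4 h, 37C/5% CO2; dual luminescence; green/red ratio; MG132 control.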
In the case of Cc1cc(C)n(Cc2ccc(F)cc2)c(=O)c1C#N, the “activity change, negative = inhibition” value is reported as inactive: -6.03%.
With Cc1ccc(NC(=O)NCc2ccc3c(c2)OCO3)c(C)c1 the Potency was inconclusive: 35.5 µM [falling, partial curve, poor fit].
With OCCN=c1cc(-c2ccccc2)oc2ccc(Cl)cc12 the “activity change, negative = inhibition” value was inactive: -1.94%.
In the case of Cc1cccc(C(=O)NNC(=O)c2ccccc2O)c1, the activity change, negative = inhibition is reported as inconclusive: 311%.
With COc1ccc(C(=O)Nc2cc3c4c(c2)CC(=O)N4CCC3)cc1 the “activity change, negative = inhibition” value was inactive: -6.02%.
For O=C(N/N=C/c1ccccn1)c1ccc(NC(=O)c2ccc(F)cc2)cc1, the activity change, negative = inhibition was inconclusive: 0.415%.
For CCN1CC2([N+](=O)[O-])CC=C(OC)C([N+](=O)[O-])(C1)C2 (stereo not drawn), the Potency was inconclusive: 23.1 µM [falling, partial curve, poor fit].
In the case of Cc1cc(NC(=O)Nc2cccc(Cl)c2)n(-c2ccccn2)n1, the activity change, negative = inhibition is reported as inconclusive: 24%.
In the case of O=C(Nc1cccc(C(F)(F)F)c1)n1cc(-c2ccccn2)c(N2CCOCC2)n1, the activity change, negative = inhibition is reported as inconclusive: 7.27%.
In the case of Cc1c(/C=N/NC(N)=O)c2ccccn2c1C(=O)c1ccc(F)cc1, the “activity change, negative = inhibition” value is reported as inactive: -0.722%.
In the case of Nc1nc(-c2ccccc2)c(C(=O)Nc2ccccc2)s1, the Potency is reported as inconclusive: 12.6 µM [cytotoxic, single point].
For Cn1c(O)c(N=NC(=O)c2ccccc2O)c2ccccc21, the activity change, negative = inhibition was inconclusive: 216%.
In the case of O=c1[nH]n(-c2ccc(Cl)cc2)c(=O)c(Cl)c1Cl, the activity change, negative = inhibition is reported as inconclusive: -25.5%.
In the case of CN(C(=O)C1CCCN(c2ncnc3c2nc2n3CCCCC2)C1)c1cccc(Cl)c1 (stereo not drawn), the “activity change, negative = inhibition” value is reported as inactive: 3.61%.
With Cc1ccc(C(=O)/C=C/c2ccc3c(c2)OCCO3)c(O)c1 the activity change, negative = inhibition was inconclusive: -0.641%.
For COCCCNC(=O)c1ccc2nc(Cc3ccc(OC)cc3)oc2c1, the activity change, negative = inhibition was inconclusive: 6.97%.
In the case of NC(=O)Cn1nnc(-c2ccc(NC(=O)c3ccc(F)cc3)cc2)n1, the Potency is reported as inconclusive: 10 µM [falling, partial curve].
In the case of CCCOc1ccc(C(=O)Nc2ccc(CN3CCOCC3)cc2)cc1, the “activity change, negative = inhibition” value is reported as inactive: -1.34%.
With CCCCCCSc1ccc(-c2nc3ccc(C)cn3c2NCc2ccccc2)cc1OC the “activity change, negative = inhibition” value was inactive: 11.9%.
In the case of Cc1[nH]oc(=O)c1N=Nc1ccccc1, the activity change, negative = inhibition is reported as inconclusive: 5.81%.
For COc1cc(-c2nc(C(=O)NCC3CCCO3)cc3c2[nH]c2ccccc23)cc(OC)c1OC (stereo not drawn), the Potency was inconclusive: 15.8 µM [falling, single point].
For O=C1C(Cl)=C(N2CCCCC2)C(=O)N1Cc1ccccc1, the activity change, negative = inhibition was inconclusive: 2.1%.
With CCOC(=O)Nc1oc2ccccc2c(=O)c1CN1CCOCC1 the activity change, negative = inhibition was inconclusive: 8.8%.
In the case of CCN(CC)C(=O)C(Oc1ccc(S(=O)(=O)N2CCCC2)cc1[N+](=O)[O-])c1ccccc1 (stereo not drawn), the activity change, negative = inhibition is reported as inconclusive: 5.32%.
For Cn1c(SCc2ccccc2)nnc1-c1cnccn1, the “activity change, negative = inhibition” value was inactive: 0.742%.
In the case of COc1ccc(C(C)(C)C)cc1NC(=O)c1ccc2ncsc2c1, the Potency is reported as inconclusive: 10 µM [falling, partial curve].
With Cc1nc2ccc(C(=O)OCC(=O)N(C)c3ccccc3)cc2nc1C the activity change, negative = inhibition was inconclusive: 1.77%.
With CCN1C(=O)C(=O)N(CC(=O)c2cc(C)n(C3CC3)c2C)C1=O the Potency was inconclusive: 18.4 µM [falling, partial curve].
With COc1c(O)cc2oc(-c3ccc(O)cc3)cc(=O)c2c1O the activity change, negative = inhibition was inconclusive: -16.9%.
For CC(=O)c1cccc(NC(=S)NC(=O)c2ccccc2Br)c1, the Potency was inconclusive: 23.1 µM [falling, partial curve].
With COc1ccc([C@H]2CC(=O)C=C(c3cccc(Cl)c3)C2)cc1OC the “activity change, negative = inhibition” value was inactive: 0.888%.
For Cc1ccc(N2CC(C(=O)NCCC3=CCCCC3)CC2=O)cc1 (stereo not drawn), the “activity change, negative = inhibition” value was inactive: 7.16%.
With COc1ccc(OC)c(S(=O)(=O)n2ccnc2C)c1 the Potency was inconclusive: 20.6 µM [falling, partial curve, poor fit].
With c1ccc(C[n+]2cccc3c4ccccc4ccc32)cc1 the “activity change, negative = inhibition” value was inactive: -25.2%.
For COCCNC(=O)c1ccc2c3n(nc2c1)-c1ccc(C)cc1CO3, the activity change, negative = inhibition was inconclusive: -0.439%.
In the case of OC1CCN(Cc2cn(Cc3ccccc3)nc2-c2cc3ccccc3o2)CC1, the “activity change, negative = inhibition” value is reported as inactive: 12.8%.
For O=C(/C=C/c1ccccc1)Nc1cc(S(=O)(=O)N2CCOCC2)ccc1N1CCOCC1, the activity change, negative = inhibition was inconclusive: 13.2%.
For O=C(Nc1cccc2c1CCCC2)c1cc([N+](=O)[O-])cc([N+](=O)[O-])c1, the “activity change, negative = inhibition” value was inactive: 1.31%.
For CC(C)(CNC(=S)NCCc1ccccc1)CNC(=S)NCCc1ccccc1, the activity change, negative = inhibition was inconclusive: -25.4%.
With Cc1nonc1NC(=O)CSc1nc(CCC2CCCC2)nc2ccccc12 the Potency was inconclusive: 12.6 µM [falling, partial curve].
In the case of O=C(NC1CC1)c1ccc2snnc2c1, the “activity change, negative = inhibition” value is reported as inactive: 1.35%.
With COc1cc(C=NNc2ccc(S(=O)(=O)Nc3ccccc3C(=O)O)cc2[N+](=O)[O-])ccc1O the Potency was inconclusive: 4.61 µM [falling, partial curve, poor fit].
For Oc1ccccc1-c1cc(-c2ccccc2)n[nH]1, the Potency was inconclusive: 20.6 µM [falling, single point].
For Oc1ccc(-c2csc(-c3cccnc3)n2)c(O)c1, the activity change, negative = inhibition was inconclusive: -9.19%.
In the case of Cn1c(N)c(C(=O)COC(=O)c2cc(C3CC3)nc3ccccc23)c(=O)n(C)c1=O, the “activity change, negative = inhibition” value is reported as inactive: -0.0454%.
With [O-]/C(=C(\C(=S)Nc1ccccc1F)[n+]1ccccc1)c1ccc(-c2ccccc2)cc1 the activity change, negative = inhibition was inconclusive: -14.8%.
With CCOC(=O)[C@H]1[C@H]2COc3ccccc3[C@@H]2N2C(=O)[C@@H](C)NC(=O)[C@@]12C the “activity change, negative = inhibition” value was inactive: 4.07%.
In the case of Cc1ccccc1S(=O)(=O)N1[C@@H](c2cccc(Cl)c2)C(C(=O)O)=CC[C@H]1c1ccc(Cl)cc1, the activity change, negative = inhibition is reported as inconclusive: 3.17%.
With O=C(Nc1cccc([N+](=O)[O-])c1)C(=O)N1CCCCC1 the “activity change, negative = inhibition” value was inactive: 0.628%.
For CCOC(=O)c1c(/N=C/C2=C(O)CC(C)(C)CC2=O)sc(C(C)=O)c1C, the activity change, negative = inhibition was inconclusive: -0.0299%.
With CCCNC(=O)C1CCN(S(=O)(=O)c2ccc(-c3nn[nH]n3)cc2)CC1 the Potency was inconclusive: 16.4 µM [rising, partial curve, poor fit].
For COCCNC(=O)C(c1ccc(C)o1)N(Cc1cccs1)C(=O)c1snc(C(N)=O)c1N (stereo not drawn), the activity change, negative = inhibition was inconclusive: 1.53%.
With Cc1ccc(-c2ccc(=O)n(Cc3ccc(F)cc3)n2)cc1 the Potency was inconclusive: 15.8 µM [falling, single point].
